# Experimental data from patent US8900593B2 (Indiana University Research and Technology Corporation, priority 2007, dated 2014).
# Assay: general procedure: Boc solid-phase peptide synthesis; Boc Thr(OBzl) Pam resin; methoxybenzhydrylamine resin for C-terminal amides; HBTU (FastBoc single couplings); DEPBT for lactam analogs
Substance,"final HPLC purity (conjugation step, 214 nm)",other results
Glucagon Cys^24 Mal-PEG-20K,,"final HPLC purity (conjugation step, analytical HPLC (Zorbax C8, 214 nm), MALDI mass spectral analysis): ˜90%"
HSQGTFTSDYSKYLDSRRAQDFVQWLMNTGPSSGAPPPS,,"final HPLC purity (whole synthesis, analytical HPLC (Zorbax C8, 214 nm), MALDI mass spectral analysis, scale of the general procedure 0.2 mmole): greater than 95%"
Glucagon Cys^29 Mal-PEG-5K,greater than 95%,
Glucagon Cys^17 Mal-PEG-5K,aprox. 90%,

# Where a sequence shows no end group, the ends are not given.
